Reference: paper PMC9322787
No constants are given. Whether binding was seen depends on the method and setting. In cells and extracts the contact can be indirect. Some binding calls cover weakened binding; strength is not graded here.

Amino acid sequences for entries named in this document (tags omitted).
UniProt P52332: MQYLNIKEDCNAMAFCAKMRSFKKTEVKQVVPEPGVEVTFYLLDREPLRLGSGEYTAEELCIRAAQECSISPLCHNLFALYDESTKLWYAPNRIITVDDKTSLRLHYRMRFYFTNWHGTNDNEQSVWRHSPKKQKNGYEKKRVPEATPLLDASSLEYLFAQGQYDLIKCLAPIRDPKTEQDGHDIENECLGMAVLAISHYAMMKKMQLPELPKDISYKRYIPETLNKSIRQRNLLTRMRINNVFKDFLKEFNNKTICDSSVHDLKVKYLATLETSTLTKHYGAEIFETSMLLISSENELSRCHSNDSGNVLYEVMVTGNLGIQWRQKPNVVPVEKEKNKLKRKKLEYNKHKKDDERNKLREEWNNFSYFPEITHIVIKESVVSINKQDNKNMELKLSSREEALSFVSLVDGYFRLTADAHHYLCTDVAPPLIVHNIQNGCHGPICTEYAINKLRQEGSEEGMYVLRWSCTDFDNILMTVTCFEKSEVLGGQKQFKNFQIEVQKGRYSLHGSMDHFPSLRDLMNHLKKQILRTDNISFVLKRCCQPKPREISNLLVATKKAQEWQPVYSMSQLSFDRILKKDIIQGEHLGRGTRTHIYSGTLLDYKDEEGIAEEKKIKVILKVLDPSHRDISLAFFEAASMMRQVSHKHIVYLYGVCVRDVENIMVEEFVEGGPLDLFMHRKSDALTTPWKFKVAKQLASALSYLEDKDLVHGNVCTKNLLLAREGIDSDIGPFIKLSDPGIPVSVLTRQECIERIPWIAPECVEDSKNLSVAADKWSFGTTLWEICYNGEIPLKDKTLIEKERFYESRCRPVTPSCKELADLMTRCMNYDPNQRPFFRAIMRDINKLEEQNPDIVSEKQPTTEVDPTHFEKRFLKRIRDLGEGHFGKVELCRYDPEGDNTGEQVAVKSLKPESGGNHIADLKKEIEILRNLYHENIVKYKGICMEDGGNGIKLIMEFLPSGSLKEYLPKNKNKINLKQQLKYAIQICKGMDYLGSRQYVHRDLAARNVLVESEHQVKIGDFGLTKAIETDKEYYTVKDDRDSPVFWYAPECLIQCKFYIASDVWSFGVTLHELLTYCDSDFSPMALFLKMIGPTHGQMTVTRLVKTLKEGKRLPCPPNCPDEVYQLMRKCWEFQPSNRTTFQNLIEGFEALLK
UniProt Q04207: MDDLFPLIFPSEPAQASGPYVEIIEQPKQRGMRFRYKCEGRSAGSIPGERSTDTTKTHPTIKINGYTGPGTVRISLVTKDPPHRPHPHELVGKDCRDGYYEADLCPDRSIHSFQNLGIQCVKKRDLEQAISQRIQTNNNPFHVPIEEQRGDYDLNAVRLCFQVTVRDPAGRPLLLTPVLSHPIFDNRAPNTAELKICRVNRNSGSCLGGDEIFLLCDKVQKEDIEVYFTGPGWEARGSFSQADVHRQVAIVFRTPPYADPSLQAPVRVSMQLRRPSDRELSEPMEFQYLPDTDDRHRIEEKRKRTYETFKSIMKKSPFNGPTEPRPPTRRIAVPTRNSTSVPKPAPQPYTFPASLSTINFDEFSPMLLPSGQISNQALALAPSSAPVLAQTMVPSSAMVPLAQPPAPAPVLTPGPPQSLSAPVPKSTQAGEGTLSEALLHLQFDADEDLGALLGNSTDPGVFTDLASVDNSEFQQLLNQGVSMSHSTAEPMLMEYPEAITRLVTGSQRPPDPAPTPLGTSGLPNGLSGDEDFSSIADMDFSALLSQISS
UniProt P42227: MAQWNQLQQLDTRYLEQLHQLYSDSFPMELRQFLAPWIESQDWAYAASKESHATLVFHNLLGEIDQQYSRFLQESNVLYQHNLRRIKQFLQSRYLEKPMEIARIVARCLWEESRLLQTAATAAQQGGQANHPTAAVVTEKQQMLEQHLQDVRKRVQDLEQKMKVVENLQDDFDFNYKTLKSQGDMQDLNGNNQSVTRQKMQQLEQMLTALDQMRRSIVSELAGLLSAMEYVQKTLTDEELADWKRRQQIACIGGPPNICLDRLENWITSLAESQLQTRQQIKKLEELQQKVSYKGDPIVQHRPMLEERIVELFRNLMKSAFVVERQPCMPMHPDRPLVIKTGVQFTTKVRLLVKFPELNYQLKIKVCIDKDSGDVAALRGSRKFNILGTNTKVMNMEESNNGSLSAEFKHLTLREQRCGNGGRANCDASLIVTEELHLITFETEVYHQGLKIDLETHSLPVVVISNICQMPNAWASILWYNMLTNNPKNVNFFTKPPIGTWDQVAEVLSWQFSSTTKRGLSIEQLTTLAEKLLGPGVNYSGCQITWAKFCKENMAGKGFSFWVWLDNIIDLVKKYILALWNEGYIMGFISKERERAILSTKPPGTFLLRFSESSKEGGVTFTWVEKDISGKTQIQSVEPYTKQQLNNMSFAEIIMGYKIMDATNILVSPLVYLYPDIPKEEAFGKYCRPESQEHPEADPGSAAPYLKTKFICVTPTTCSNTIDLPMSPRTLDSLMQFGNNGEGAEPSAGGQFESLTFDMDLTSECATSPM
UniProt Q9Z1E3: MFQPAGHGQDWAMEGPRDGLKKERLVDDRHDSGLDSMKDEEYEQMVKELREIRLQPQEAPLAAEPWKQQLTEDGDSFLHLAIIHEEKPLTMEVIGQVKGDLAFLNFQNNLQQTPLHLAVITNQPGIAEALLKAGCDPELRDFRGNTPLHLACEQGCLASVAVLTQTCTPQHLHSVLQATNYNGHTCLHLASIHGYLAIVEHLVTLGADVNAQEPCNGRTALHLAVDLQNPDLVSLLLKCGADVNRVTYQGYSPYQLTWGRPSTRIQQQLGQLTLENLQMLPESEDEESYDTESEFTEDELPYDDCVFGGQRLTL

How the values were obtained:
[1] = molecular target: JAK1 (mouse (endogenous in RAW264.7)) (UniProt P52332); experiment: co-IP; precleared whole-cell lysates of RAW264.7 cells (pretreated with hispolon 1 h, then LPS 1 h) incubated overnight at 4 °C with monoclonal anti-JAK1 or anti-NF-κB p65 antibody, G and L agarose beads, washed five times with lysis buffer; Western blot
[2] = molecular target: NF-κB p65 (mouse (endogenous in RAW264.7)) (UniProt Q04207); experiment: as above

Substance | binding [1] | binding [2]
STAT3 (from UniProt P42227 1-770) | binds | –
phospho-IκBα (from UniProt Q9Z1E3 1-314) | – | binds
